PubChem BioAssay AID652259 – Drosophila RNAi Screening Center – 2013
Screen: 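Identify new Wingless signalling regulators in fly cells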 (primary screen). System: Drosophila clone 8 imaginal disc epithelial cells. Knock-down reagent: long dsRNA against Drosophila genes. Conditions: pathway stimulated by co-transfected Wingless expression plasmid. Measured: 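Dual luciferase reads per well after Wingless plasmid stimulation: reporter firefly light and Renilla control light; activity is firefly divided by Renilla, a ratio not deposited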. Direction: firefly reporter light: higher = more Wg reporter light, before normalisation; Renilla control light: higher = more transfected or surviving cells. Rule for the call: 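a knock-down is a candidate when at least two out of four statistical tests show it departing from its plate mean; one test alone signals a weak candidate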. Meaning of the calls: active = candidate regulator (raises or lowers reporter); inactive = not a candidate.
The screen tested about 22,000 reagents; below is an unselected part of those that have a named target and a result. Of all reagents, 233 (1.1%) were called active. 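Light values are raw, unnormalised plate reads; the ratio scores behind the reporter calls were not deposited.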 A number with no mark means an inactive call. A plus sign joins genes that one reagent is predicted to hit. No sequences are given here. The record does not give: the amount of reagent, the time to read-out, the dose of the treatment.

Gene | amplicon | reporter change call, replicate 1 | firefly reporter light, replicate 1 | firefly reporter light, replicate 2 | Renilla control light, replicate 1 | Renilla control light, replicate 2
Gr92a | DRSC21631 | – | 3.78e5 | 4.11e5 | 1.51e5 | 1.37e5
stac | DRSC13693 | – | 2897 | – | 1117 | –
stac | DRSC14392 | – | 21920 | – | 12885 | –
stac | DRSC22197 | – | 5.64e5 | 8.15e5 | 2.53e5 | 3.58e5
Calx | DRSC13457 | – | 3420 | – | 1843 | –
Calx | DRSC13459 | – | 3056 | – | 2009 | –
Calx | DRSC16599 | – | 14203 | – | 3385 | –
Calx | DRSC21850 | – | 9.91e5 | 6.64e5 | 3.19e5 | 3.48e5
mthl7 | DRSC10852 | – | 2027 | 7573 | 1335 | 2732
CG31437 | DRSC13711 | – | 3621 | – | 1705 | –
CG1722 | DRSC20547 | – | 16296 | – | 8394 | –
IntS3 | DRSC21215 | Wg reporter activity lowered (active) | 7441 | – | 6658 | –
wdn | DRSC17095 | – | 2585 | 5105 | 512 | 1207
CtsL2 | DRSC06978 | – | 10592 | – | 3392 | –
CG13215 | DRSC06337 | – | 5264 | – | 3184 | –
w | DRSC17233 | – | 4978 | – | 2032 | –
w | DRSC18850 | – | 19923 | – | 12477 | –
CG13218 | DRSC06340 | – | 5445 | – | 2533 | –
Cyp40 | DRSC10980 | – | 3683 | – | 1920 | –
sc | DRSC18830 | – | 20763 | – | 8320 | –
Prosbeta5 | DRSC07517 | – | 2618 | 4949 | 802 | 2061
CG14606 | DRSC12550 | – | 16298 | – | 3734 | –
Dhc16F | DRSC20242 | – | 23040 | – | 8994 | –
CG7766 | DRSC18424 | – | 1952 | 4435 | 732 | 1636
fs(1)K10 | DRSC18775 | – | 1720 | 7581 | 853 | 1973
oaf | DRSC00831 | – | 3776 | 5819 | 1234 | 1930
CG43740 | DRSC17848 | – | 18864 | – | 8346 | –
CG43740 | DRSC17994 | – | 19824 | – | 13154 | –
mRpL43 | DRSC04508 | – | 4227 | 9896 | 1176 | 4024
mRpL43 | DRSC22571 | – | 5.49e5 | 5.46e5 | 2.39e5 | 96308
CG7950 + Rpp14a | DRSC16353 | – | 1690 | 4557 | 1052 | 1846
Tret1-1 | DRSC07046 | – | 4416 | – | 2283 | –
Tret1-1 | DRSC07048 | – | 5056 | – | 2129 | –
ND-B15 | DRSC06199 | – | 9312 | – | 2744 | –
Hsp60D | DRSC02543 | – | 2522 | 6201 | 932 | 2037
CG42523 | DRSC00251 | – | 19840 | – | 11709 | –
Lcp65Ac | DRSC11210 | – | 1161 | 9188 | 1227 | 3660
CG11456 | DRSC11665 | – | 3542 | – | 1564 | –
PpD6 | DRSC00774 | – | 1956 | 7607 | 597 | 2331
Mal-B1 | DRSC02416 | – | 2325 | 9819 | 1164 | 4848
CG1387 | DRSC17904 | – | 2716 | 9447 | 873 | 2011
CG7330 | DRSC10813 | – | 8797 | – | 3576 | –
CG7330 | DRSC10814 | – | 6987 | – | 3265 | –
CG14740 | DRSC14960 | – | 5781 | – | 2119 | –
Liprin-alpha | DRSC02132 | – | 9056 | – | 3319 | –
CG13931 | DRSC08400 | – | 4429 | – | 2464 | –
CG11509 (retired record) | DRSC17788 | – | 3940 | 12693 | 1959 | 4176
CycE | DRSC03295 | – | 5028 | – | 1627 | –
CycE | DRSC03296 | – | 2560 | 4845 | 1127 | 2628
ClC-c | DRSC10499 | – | 3848 | – | 1526 | –
CG31262 | DRSC13216 | – | 4992 | – | 1784 | –
Cfp1 | DRSC18128 | – | 20026 | – | 9956 | –
CG2604 | DRSC12313 | – | 11226 | – | 2160 | –
c12.1 | DRSC18750 | – | 30992 | – | 7402 | –
CG10433 | DRSC04068 | – | 20512 | – | 4768 | –
CG8516 | DRSC16437 | – | 10912 | – | 3674 | –
Nrg | DRSC17573 | – | 3936 | – | 1125 | –
Nrg | DRSC18688 | – | 1890 | 6823 | 888 | 2410
CG5274 | DRSC11774 | – | 7045 | – | 2211 | –
Npc1b | DRSC20488 | – | 15523 | – | 8615 | –
vib | DRSC17094 | – | 4733 | 6388 | 1833 | 2858
CG18469 | DRSC21838 | – | 4.03e5 | 4.49e5 | 2.23e5 | 2.22e5
Prp38 | DRSC07060 | – | 7024 | – | 1009 | –
sqa | DRSC06693 | – | 6544 | – | 2403 | –
sqa | DRSC21635 | – | 5.53e5 | 6.93e5 | 2.74e5 | 2.28e5
Syn2 | DRSC06902 | – | 5200 | – | 2588 | –
CG10948 | DRSC09806 | – | 7648 | – | 3813 | –
plu | DRSC07665 | – | 4864 | – | 1193 | –
SppL | DRSC15228 | – | 18353 | – | 15657 | –
CG14829 | DRSC10199 | – | 1945 | 10153 | 1430 | 4800
pie | DRSC03590 | – | 6320 | – | 1303 | –
Veneno | DRSC16537 | – | 12720 | – | 3396 | –
Galt | DRSC03161 | – | 9015 | – | 3417 | –
Rrp5 | DRSC15862 | – | 2230 | 4041 | 1096 | 1769
Prx6c + CG12896 + Prx6b | DRSC06148 | – | 2720 | 7124 | 694 | 1611
Sf3b3 | DRSC08370 | – | 18499 | – | 4721 | –
MAPk-Ak2 | DRSC18678 | – | 19323 | – | 9184 | –
Schip1 | DRSC02851 | – | 1745 | 8033 | 885 | 3632
AstC-R2 | DRSC10051 | – | 6652 | – | 3645 | –
E(spl)mdelta-HLH | DRSC16698 | – | 17121 | – | 12384 | –
Mt2 | DRSC03374 | – | 2353 | 5328 | 1031 | 2402
Lrch | DRSC02996 | – | 14186 | – | 5372 | –
Diap2 | DRSC07444 | – | 7081 | – | 2594 | –
CG5043 | DRSC02805 | – | 3312 | 4245 | 1133 | 2060
CG32074 | DRSC22246 | – | 6.14e5 | 6.25e5 | 2.35e5 | 2.95e5
mEFTu2 | DRSC06163 | – | 13573 | – | 3813 | –
CG18599 | DRSC15357 | – | 19319 | 6.70e5 | 4961 | 3.42e5
CG18599 | DRSC22585 | – | 5.53e5 | 4.96e5 | 54717 | 24826
CG4377 | DRSC04467 | – | 14445 | – | 3851 | –
Ir31a | DRSC22358 | – | 4.89e5 | 6.09e5 | 1.80e5 | 2.38e5
CG32687 | DRSC18210 | – | 17670 | – | 10128 | –
CG32687 | DRSC18237 | – | 17453 | – | 8771 | –
CG15572 | DRSC18060 | – | 24837 | – | 10064 | –

Called active, among the entries above:
Gene | amplicon | reporter change call, replicate 1 | firefly reporter light, replicate 1 | firefly reporter light, replicate 2 | Renilla control light, replicate 1 | Renilla control light, replicate 2
IntS3 | DRSC21215 | Wg reporter activity lowered (active) | 7441 | – | 6658 | –
